Laboratory results taken from article PMC5798889.
No constants are given. Whether binding was seen depends on the method and setting. For part of these data: Binding seen in cells or lysates may run through a third protein. Some entries that bind do so weakly or less than the wild type. For part of these data: Tags and fused reporters may be left off the sequences shown. Each block holds one substance with its values, some of them ahead of it.

Protein sequences, listed by entry. Tags and fused reporters are not part of them.
UniProt Q9Y3P9: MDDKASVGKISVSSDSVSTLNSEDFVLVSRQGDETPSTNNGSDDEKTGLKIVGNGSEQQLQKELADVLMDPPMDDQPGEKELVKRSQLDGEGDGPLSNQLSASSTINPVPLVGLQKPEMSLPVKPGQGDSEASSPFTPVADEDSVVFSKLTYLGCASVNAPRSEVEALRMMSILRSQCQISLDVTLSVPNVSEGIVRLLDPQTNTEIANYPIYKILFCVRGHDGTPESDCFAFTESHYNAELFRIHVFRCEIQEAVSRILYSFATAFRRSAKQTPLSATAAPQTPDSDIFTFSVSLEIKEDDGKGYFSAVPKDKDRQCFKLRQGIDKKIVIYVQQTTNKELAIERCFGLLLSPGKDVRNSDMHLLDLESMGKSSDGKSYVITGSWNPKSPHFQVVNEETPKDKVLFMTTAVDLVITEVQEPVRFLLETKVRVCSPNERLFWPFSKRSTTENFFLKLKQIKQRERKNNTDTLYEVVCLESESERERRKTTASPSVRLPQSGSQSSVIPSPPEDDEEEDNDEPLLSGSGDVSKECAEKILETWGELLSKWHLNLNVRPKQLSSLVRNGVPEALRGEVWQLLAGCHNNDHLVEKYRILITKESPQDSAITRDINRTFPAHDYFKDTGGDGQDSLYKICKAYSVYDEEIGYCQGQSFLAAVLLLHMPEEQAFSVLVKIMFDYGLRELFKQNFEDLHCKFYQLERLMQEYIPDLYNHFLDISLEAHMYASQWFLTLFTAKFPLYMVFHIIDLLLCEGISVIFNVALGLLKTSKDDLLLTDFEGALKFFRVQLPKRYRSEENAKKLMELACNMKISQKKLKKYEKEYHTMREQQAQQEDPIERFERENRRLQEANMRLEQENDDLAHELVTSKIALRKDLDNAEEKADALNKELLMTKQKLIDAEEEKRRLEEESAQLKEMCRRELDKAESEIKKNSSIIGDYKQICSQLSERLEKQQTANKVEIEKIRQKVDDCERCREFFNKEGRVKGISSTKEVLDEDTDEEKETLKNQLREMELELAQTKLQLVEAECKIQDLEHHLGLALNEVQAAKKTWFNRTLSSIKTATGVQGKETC

Legend:
[1] = target: T1, endogenous TUFT1 in A549 cells (human (endogenous in A549)) (UniProt Q9NNX1); test: co-IP; endogenous proteins in lysates of A549 cells transfected with the indicated siRNAs; immunoprecipitation with TUFT1 antibody, HA antibody beside it; immunoblot of the precipitates
T1 sequence: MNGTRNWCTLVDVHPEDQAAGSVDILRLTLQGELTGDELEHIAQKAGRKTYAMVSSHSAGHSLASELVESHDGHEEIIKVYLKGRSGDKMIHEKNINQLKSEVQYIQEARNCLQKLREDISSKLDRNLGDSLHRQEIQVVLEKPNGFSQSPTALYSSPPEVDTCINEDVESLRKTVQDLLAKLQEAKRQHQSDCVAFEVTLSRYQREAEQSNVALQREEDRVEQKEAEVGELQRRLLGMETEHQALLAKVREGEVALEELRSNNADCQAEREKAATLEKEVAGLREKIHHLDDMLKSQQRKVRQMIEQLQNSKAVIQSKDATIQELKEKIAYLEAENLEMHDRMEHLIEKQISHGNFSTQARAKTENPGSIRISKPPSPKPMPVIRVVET

GST-10xHis-TUFT1 (human) = target: T2, GST-10xHis-TUFT1 (human) (UniProt Q9NNX1); test: pull-down; GST pull-down with GST-10xHis-TUFT1 or control GST and recombinant RABGAP1; RIPA buffer (50 mM Tris-HCl pH 8.0, 150 mM NaCl, 0.1% SDS, 0.5% DOC, 1% Triton X-100); detection by immunoblotting; both purified
T2 sequence: T1 sequence

[2] = target: T3, tuftelin 1 (TUFT1), exogenously expressed in HEK293T cells (human) (UniProt Q9NNX1); test: co-IP; exogenously expressed RABGAP1 and TUFT1 in HEK293T cells; lysis buffer 1% NP-40, 150 mM NaCl, 20 mM Tris-HCl pH 7.5; which protein was precipitated not given
T3 sequence: T1 sequence

binding [1]: binds
Substance: endogenous RABGAP1 in A549 cells (from UniProt Q9Y3P9 1-1069)

binding (GST-10xHis-TUFT1 (human)): binds
Substance: recombinant RABGAP1 (Abcam #ab161730) (from UniProt Q9Y3P9 1-1069)

binding [2]: binds
Substance: RABGAP1, exogenously expressed in HEK293T cells (from UniProt Q9Y3P9 1-1069)
